Test results published in patent publication US7989469B2, “Certain chemical entities, compositions, and methods” (Cytokinetics, Incorporated, priority 2008, dated 2011).
At least one structure is not confirmed: it was looked up by name or label, or the drawing left a doubt.

Test system: rabbit skeletal muscle myofibril preparations (approximately 90% fast fibers)
Test: Activation of fast skeletal muscle fibers: enzymatic activity of myofibril preparations (PUMA assay system)
Format: biochemical
Parameters: unit not given here
Settings: detergent treated myofibrils at pCa25%, 500 μM ATP; median value (no †)
Excerpt: Fast fiber activators were identified by measuring the enzymatic activity of muscle myofibril preparations using the proprietary PUMA™ (see, e.g., U.S. Pat. Nos. 6,410,254, 6,743,599, 7,202,051, and 7,378,254) assay system. Myofibril preparations consisted of rabbit skeletal muscle (approximately 90% fast fibers) that had been treated with a detergen (triton X-100) to remove cellular membranes and then homogenized. This preparation retained all of the sarcomeric components in a native conformation and the enzymatic activity was still regulated by calcium. Compounds were tested using a myofibril suspension and a level of calcium sufficient to increase enzymatic activity of the myofibrils to 25% of their maximal rate (termed pCa25%). Enzymatic activity was tracked via a kinetic assay with a UV absorption readout. Hits were identified as compounds that increased the rate of enzymatic activity by greater than 40% at 40 μM. Myofibril preparations are calcium regulated and were screened at a level of calcium sufficient to produce a 25% increase in enzymatic rate. Detergent treated myofibrils were incubated with 500 μM ATP and 40 μM compound and a kinetic read of UV absorbance performed. Data was normalized to control wells.

Structure (SMILES): CC[C@@H](C)n1c(O)nc2ncc(Cl)c(-n3cccn3)c21 [1-((1R)-1-methylpropyl)-6-chloro-7-pyrazolylimidazo[4,5-b]pyridin-2-ol]
- AC1.4 Median: 0.5583
